Data source: PubChem BioAssay AID504786 (Drosophila RNAi Screening Center, 2011)

Screen: 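Knock-downs reducing HIF reporter induction by the iron chelator DFO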 (primary screen)
Cells: Drosophila S2 cells with a stable HIF luciferase reporter
Reagent: long dsRNA against Drosophila genes, about 0.2 µg dsRNA per well of a 384-well plate
Duration: three days of knock-down, then 20 h of DFO before reading
Conditions: desferrioxamine (DFO) at 100 µM, an iron chelator that mimics hypoxia, for 20 h
Detection: 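Firefly luciferase driven by the mouse ldh-a hypoxia-response element, measured after 20 h of 100 µM DFO; z-scores per plate, higher means more signal lost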
Direction: z-score: higher = stronger loss of HIF reporter signal
The deposit covers about 21,000 reagents; this is a random part of those that have a named target and a result. 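Primary screen; positive scores mean lost reporter signal, so the sign may be inverted from the usual convention.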 Reagents against one gene are numbered here. Names joined by + are all predicted targets of the reagent. Not all columns of the deposit are shown.

predicted target | reagent | z-score, replicate 1
ham (hamlet) | 1 | -0.2
ham (hamlet) | 2 | -0.3
ham (hamlet) | 3 | -0.3
CAP | 1 | 1.1
CAP | 2 | -0.2
CAP | 3 | -0.2
CAP | 4 | -0.3
CAP | 5 | -0.3
CG32708 | 1 | -0.1
SA2 (Stromalin 2) | 1 | -0.3
ppk19 (pickpocket 19) | 1 | -0.5
CG8034 | 1 | -0.2
CG11779 | 1 | 0.4
Cdc7 (Cdc7 kinase) | 1 | -0.3
Cdc7 (Cdc7 kinase) | 2 | -0.3
DENR (Density regulated protein) | 1 | -0.1
Rx (Retinal Homeobox) | 1 | -0.5
Rx (Retinal Homeobox) | 2 | -0.3
NPFR (Neuropeptide F receptor) | 1 | -0.2
Rpp20 + CG33932 | 1 | 0.2
Tsp42El (Tetraspanin 42El) | 1 | -0.1
CG30447 | 1 | 0.6
Glo1 (Glyoxalase 1) | 1 | -0.2
Or69a (Odorant receptor 69a) | 1 | 0
CG5768 | 1 | -0.3
CG2082 | 1 | -0.4
lt (light) | 1 | -0.2
Cdc6 (Cell division cycle 6) | 1 | -0.1
kek2 (kekkon 2) | 1 | -0.2
ND-18 (NADH dehydrogenase (ubiquinone) 18 kDa subunit) | 1 | -0.2
CG43689 | 1 | 1.4
CG5853 | 1 | -0.3
CG5853 | 2 | -0.3
RhoGAP93B (Rho GTPase activating protein at 93B) | 1 | -0.4
ND-24 (NADH dehydrogenase (ubiquinone) 24 kDa subunit) | 1 | -0.1
rdgA (retinal degeneration A) | 1 | -0.1
rdgA (retinal degeneration A) | 2 | -0.1
rdgA (retinal degeneration A) | 3 | -0.3
CG1421 | 1 | -0.1
Idh3a (Isocitrate dehydrogenase 3a) | 1 | -0.2
CG12224 | 1 | -0.1
grnd (grindelwald) | 1 | -0.2
CG8252 | 1 | -0.3
PNKP (Polynucleotide kinase 3'-phosphatase) | 1 | -0.3
Cdk1 (Cyclin-dependent kinase 1) | 1 | 4
HP1e (Heterochromatin Protein 1e) | 1 | -0.3
daw (dawdle) | 1 | -0.4
CG3592 | 1 | -0.3
sxe2 (sex-specific enzyme 2) | 1 | -0.3
peb (pebbled) | 1 | 0.7
CG8414 | 1 | -0.1
CG8507 | 1 | -0.3
CG11294 | 1 | -0.3
O-fut2 (O-fucosyltransferase 2) | 1 | -0.1
Ankrd49 | 1 | -0.3
aralar1 | 1 | 0.5
aralar1 | 2 | -0.3
MagR (Magnetic receptor) | 1 | 0
CG32454 | 1 | -0.3
CG42594 | 1 | 1.7
CG42594 | 2 | -0.3
CG42361 | 1 | 0.1
CG30412 | 1 | -0.3
Nep5 (Neprilysin 5) | 1 | -0.3
alphaTub84D (alpha-Tubulin at 84D) | 1 | 0.8
Polr2G (RNA polymerase II subunit G) | 1 | 3.5
Ntf-2 (Nuclear transport factor-2) | 1 | -0.5
Nos (Nitric oxide synthase) | 1 | -0.4
Gpo3 (Glycerophosphate oxidase 3) | 1 | -0.3
fd19B (forkhead domain 19B) | 1 | -0.2
unc80 (uncoordinated 80) | 1 | -0.4
CG9588 | 1 | -0.4
Sems (Seminase) | 1 | -0.3
CR30374 (pseudo) | 1 | -0.3
CG45067 | 1 | -0.2
Fum3 (Fumarase 3) | 1 | -0.2
CG12535 | 1 | -0.2
CG18088 | 1 | 0.2
Ilp3 (Insulin-like peptide 3) | 1 | -0.2
CG15841 (retired record) + Acp33A | 1 | -0.4
grh (grainy head) | 1 | -0.5
grh (grainy head) | 2 | 0.7
grh (grainy head) | 3 | -0.3
grh (grainy head) | 4 | -0.2

Individual results from the entries so far:
grnd (grindelwald), z-score, replicate 1: -0.2
Under “z-score, replicate 1”, ham (hamlet) #3 reads -0.3
Under “z-score, replicate 1”, CAP #4 reads -0.3
For “z-score, replicate 1”, CG5853 #1 is entered as -0.3
For “z-score, replicate 1”, Rpp20 + CG33932 has 0.2
CG2082, z-score, replicate 1 → -0.4
